Results are given in words; binding and its absence hold for the method and conditions named. In cells and extracts the contact can be indirect. Some entries that bind do so weakly or less than the wild type.

The chains behind the UniProt entries cited, without tags or fusion partners.
UniProt P63158: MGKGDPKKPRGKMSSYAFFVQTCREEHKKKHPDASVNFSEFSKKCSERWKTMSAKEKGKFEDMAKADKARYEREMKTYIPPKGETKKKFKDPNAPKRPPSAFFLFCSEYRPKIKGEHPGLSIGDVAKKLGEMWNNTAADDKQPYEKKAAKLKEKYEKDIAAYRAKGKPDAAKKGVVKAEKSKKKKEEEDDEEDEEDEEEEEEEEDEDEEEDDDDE

The assay has as its target T1, Toll-like receptor 9 (TLR9) (mouse (endogenous in C57BL/6 TDSCs)) (UniProt Q9EQU3).
T1 sequence: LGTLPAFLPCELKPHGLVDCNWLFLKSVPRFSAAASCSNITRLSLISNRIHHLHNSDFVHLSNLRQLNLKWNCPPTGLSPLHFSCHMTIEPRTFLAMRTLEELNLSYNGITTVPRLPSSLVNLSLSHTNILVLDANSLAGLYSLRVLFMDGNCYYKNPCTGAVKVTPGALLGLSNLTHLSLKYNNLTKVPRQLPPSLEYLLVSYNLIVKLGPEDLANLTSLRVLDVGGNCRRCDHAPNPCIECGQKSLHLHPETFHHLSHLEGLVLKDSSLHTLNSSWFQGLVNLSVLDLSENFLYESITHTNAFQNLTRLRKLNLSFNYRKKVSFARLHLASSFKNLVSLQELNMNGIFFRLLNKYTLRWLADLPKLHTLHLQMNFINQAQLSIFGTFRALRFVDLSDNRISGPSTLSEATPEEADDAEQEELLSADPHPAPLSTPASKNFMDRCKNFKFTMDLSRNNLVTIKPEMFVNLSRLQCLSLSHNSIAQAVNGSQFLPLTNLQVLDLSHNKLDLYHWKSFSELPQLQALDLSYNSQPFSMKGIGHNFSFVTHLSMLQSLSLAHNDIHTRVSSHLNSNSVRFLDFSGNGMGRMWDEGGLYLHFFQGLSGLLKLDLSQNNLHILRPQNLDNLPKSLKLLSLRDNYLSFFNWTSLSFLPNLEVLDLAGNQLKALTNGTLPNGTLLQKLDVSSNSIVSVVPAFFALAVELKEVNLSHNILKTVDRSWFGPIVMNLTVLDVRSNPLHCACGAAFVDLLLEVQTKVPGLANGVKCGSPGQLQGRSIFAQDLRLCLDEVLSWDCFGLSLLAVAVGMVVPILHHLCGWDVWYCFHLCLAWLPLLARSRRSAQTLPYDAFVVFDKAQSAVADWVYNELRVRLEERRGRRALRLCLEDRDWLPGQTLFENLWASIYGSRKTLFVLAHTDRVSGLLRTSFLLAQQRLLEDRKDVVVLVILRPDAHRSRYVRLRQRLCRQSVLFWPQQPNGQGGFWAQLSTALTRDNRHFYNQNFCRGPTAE
Kind of assay: co-IP; lysate of TDSCs (IP Lysis/Wash buffer) after treatment with Mϕ-EVs, pyroMϕ-EVs, OV-EVs, KD-EVs or inhibpyroMϕ-EVs; anti-HMGB1, anti-TLR9 or normal rabbit IgG coupled to magnetic beads (Pierce Direct Magnetic IP/Co-IP kit), 4 °C overnight; Western blot.

Take “high mobility group protein 1 (HMGB1) (from UniProt P63158 1-215)”: the binding result is “binds”.
